The data set is described as follows: peptide synthesis. To be noted: conjugation step.

Some peptides are written in HELM: one residue between dots, names in brackets for other building blocks, links after the first $.

Substance “1,3,7-trimethyl-5-indolylstyryl-2,6-diethyl-8-(4-phenoxymethyltriazole K(N3)LARLLT)-BODIPY” showed a conjugation yield of 70%. “PEPTIDE1{[K(trz-BODIPY1)].L.A.R.L.L.T.[am]}$$$$V2.0” displayed a conjugation yield of 82%. Substance “PEPTIDE1{[K(trz-BODIPY2)].[dL].[dA].[dR].[dL].[dL].[dT]}$PEPTIDE1,PEPTIDE1,1:R1-7:R2$$$V2.0” had a conjugation yield of 80%.

The values are drawn from publication PMC7865655 (Molecules, 2021).
